Experimental data as given in PubChem BioAssay AID743167 (National Center for Advancing Translational Sciences (NCATS), 2013).
This list was built around the results that the source calls inconclusive (neither active nor inactive); the mix of calls is not that of the screen. Calls follow the shape of the dose curve; as a rule, active = well fitted activation curve with a large enough effect; inconclusive = small, poorly fitted or top-dose-only effect; inactive = flat fitted curve, though single readings scatter. Where the call is inconclusive, the potency comes from a doubtful curve fit.

Assay: Extended Characterization of HPGD Inhibitors: PGE2 Assay in A549 Cells
Conditions: PGE2 HTRF level, 16 h
Text: The central role of HPGD is to inactivate prostaglandins such as prostaglandin E2 (PGE2) or prostaglandin D2 (PGD2). These prostaglandins are involved in a number of processes, including inflammation, differentiation, and cellular signaling, which makes HPGD an important target for pharmacological intervention. A number of prostaglandins of particular biological interest have been identified as substrates of HPGD. […] Over-production of PGE2 has been reported to promote tumor-associated neovascularization, cell proliferation, and tumor growth. […] In this orthogonal assay, we set out to measure if compounds were able to increase PGE2 production NIH Chemical Genomics Center [NCGC] NIH Molecular Libraries Probe Centers Network [MLPCN] MLPCN Grant: MH084681 Assay Submitter (PI): Structural Genomics Consortium
A549 cells, LNCaP cells or media were dispensed in 384-well plates (ProxiPlate-384 Plus, PerkinElmer, Shelton, CT) at 5,000 cells/9.9 uL/well using a CappAero384 multichannel pipette (Odense, Denmark). […] Time-resolved fluorescence intensity (320 nm excitation, 615 and 665 nm emission) was measured using an Envision plate reader (PerkinElmer). Data was expressed as the ratio of 665 nm/615 nm emissions. Concentration (pg/mL) of samples were calculated from a 4-parameter logistic calibration curves of the PGE2 standards.

Row | SMILES | Potency
1 | Cc1cc(-c2nnc3n2CCCCC3)c(C)n1-c1ccc(Cl)cc1 | inconclusive: 0.264 µM [activator, full curve, poor fit]
2 | COc1ccc(-n2c(C)cc(-c3nnc4n3CCCCC4)c2C)cc1 | inconclusive: 0.059 µM [activator, full curve, poor fit]
